The list shows a part of the results.
Compound: Cc1cc(ccc1-c1ccccc1)C(=O)N1CCCN(CC1)C(=O)CCl [compound 10]
Assay: probe-labelled cysteine peptide fold change vs DMSO (competition) (log2 fold change); higher = less target engagement (more negative = stronger competition)
Settings: THP-1, incubation time: 4 h
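Further: competitive profiling in live THP-1 cells: cysteine peptides tagged with an iodoacetamide desthiobiotin (IA-DTB) probe, intensity after compound treatment relative to DMSO-treated cells.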

Chains of the proteins cited; added tags and fusions are not shown. Lines headed by an entry give the natural chain unless they say otherwise; changes in a name come on top.
UniProt P12081: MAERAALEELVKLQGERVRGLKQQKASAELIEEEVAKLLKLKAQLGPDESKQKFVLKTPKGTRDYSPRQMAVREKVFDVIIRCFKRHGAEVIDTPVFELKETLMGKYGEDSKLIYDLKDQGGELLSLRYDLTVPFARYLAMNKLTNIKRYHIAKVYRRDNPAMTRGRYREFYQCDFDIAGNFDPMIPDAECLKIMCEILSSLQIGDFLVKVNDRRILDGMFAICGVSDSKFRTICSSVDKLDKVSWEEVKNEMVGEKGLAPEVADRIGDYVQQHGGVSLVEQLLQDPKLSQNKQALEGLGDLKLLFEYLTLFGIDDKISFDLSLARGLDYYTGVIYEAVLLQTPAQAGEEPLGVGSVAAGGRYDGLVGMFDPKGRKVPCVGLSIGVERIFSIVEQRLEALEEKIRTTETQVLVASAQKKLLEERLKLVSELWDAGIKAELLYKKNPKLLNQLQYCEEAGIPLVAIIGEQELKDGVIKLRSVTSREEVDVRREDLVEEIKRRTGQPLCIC
UniProt Q6PII5: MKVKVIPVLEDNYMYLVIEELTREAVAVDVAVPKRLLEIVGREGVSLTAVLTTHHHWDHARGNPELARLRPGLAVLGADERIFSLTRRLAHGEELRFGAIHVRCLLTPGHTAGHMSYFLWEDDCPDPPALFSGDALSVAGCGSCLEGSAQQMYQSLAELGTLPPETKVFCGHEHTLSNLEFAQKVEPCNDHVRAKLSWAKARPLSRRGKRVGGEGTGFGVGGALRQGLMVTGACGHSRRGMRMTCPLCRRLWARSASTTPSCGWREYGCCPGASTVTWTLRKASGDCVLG
UniProt P15170, whole entry, looked up: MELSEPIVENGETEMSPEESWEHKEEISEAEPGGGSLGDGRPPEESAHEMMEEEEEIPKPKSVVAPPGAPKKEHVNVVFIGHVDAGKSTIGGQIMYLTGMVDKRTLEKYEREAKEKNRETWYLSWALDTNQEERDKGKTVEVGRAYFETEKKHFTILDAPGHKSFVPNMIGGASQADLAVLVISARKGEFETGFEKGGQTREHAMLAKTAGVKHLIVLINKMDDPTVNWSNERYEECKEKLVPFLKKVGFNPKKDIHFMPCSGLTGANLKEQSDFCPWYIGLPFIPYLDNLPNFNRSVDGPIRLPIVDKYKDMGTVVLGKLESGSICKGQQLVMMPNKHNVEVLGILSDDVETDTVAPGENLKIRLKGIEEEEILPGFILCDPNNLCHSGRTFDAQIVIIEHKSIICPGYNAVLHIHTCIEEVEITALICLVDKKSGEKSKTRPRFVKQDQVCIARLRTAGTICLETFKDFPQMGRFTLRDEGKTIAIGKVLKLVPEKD
UniProt Q9UKN8: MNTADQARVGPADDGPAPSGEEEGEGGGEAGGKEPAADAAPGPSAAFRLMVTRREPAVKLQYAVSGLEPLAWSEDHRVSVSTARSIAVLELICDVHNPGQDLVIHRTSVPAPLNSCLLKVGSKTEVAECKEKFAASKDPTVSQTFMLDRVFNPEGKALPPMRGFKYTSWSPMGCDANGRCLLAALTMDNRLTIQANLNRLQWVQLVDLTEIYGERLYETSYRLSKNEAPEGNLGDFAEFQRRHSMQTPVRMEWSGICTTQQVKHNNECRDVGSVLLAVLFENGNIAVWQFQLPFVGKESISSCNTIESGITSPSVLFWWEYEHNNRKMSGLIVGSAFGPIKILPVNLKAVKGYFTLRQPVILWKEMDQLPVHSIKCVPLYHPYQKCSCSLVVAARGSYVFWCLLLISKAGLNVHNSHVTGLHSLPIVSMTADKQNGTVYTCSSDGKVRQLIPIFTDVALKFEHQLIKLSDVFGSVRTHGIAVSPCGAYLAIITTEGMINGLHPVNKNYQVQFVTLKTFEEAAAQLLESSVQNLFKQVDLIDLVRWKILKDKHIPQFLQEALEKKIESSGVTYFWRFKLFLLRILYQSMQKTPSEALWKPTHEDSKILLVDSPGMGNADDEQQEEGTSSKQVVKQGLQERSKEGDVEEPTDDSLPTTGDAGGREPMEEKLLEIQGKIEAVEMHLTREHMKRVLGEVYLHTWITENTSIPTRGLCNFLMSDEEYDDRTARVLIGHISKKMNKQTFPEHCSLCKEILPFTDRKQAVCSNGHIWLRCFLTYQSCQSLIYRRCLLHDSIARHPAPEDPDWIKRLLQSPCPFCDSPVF
UniProt P32780: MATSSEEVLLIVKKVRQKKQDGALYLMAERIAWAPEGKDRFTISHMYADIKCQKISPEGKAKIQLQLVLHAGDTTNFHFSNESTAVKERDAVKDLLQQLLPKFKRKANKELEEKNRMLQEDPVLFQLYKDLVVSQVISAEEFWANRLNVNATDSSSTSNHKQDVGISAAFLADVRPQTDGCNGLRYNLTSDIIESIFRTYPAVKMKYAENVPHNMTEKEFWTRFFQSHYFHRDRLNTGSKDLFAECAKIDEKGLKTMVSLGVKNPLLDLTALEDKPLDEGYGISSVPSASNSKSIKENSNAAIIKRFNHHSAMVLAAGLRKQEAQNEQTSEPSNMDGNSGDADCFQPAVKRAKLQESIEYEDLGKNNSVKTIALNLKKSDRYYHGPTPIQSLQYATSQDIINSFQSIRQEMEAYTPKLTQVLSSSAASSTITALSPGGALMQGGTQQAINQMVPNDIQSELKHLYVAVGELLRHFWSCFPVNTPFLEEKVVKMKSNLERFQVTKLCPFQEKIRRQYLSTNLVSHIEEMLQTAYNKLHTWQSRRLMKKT
UniProt P78347: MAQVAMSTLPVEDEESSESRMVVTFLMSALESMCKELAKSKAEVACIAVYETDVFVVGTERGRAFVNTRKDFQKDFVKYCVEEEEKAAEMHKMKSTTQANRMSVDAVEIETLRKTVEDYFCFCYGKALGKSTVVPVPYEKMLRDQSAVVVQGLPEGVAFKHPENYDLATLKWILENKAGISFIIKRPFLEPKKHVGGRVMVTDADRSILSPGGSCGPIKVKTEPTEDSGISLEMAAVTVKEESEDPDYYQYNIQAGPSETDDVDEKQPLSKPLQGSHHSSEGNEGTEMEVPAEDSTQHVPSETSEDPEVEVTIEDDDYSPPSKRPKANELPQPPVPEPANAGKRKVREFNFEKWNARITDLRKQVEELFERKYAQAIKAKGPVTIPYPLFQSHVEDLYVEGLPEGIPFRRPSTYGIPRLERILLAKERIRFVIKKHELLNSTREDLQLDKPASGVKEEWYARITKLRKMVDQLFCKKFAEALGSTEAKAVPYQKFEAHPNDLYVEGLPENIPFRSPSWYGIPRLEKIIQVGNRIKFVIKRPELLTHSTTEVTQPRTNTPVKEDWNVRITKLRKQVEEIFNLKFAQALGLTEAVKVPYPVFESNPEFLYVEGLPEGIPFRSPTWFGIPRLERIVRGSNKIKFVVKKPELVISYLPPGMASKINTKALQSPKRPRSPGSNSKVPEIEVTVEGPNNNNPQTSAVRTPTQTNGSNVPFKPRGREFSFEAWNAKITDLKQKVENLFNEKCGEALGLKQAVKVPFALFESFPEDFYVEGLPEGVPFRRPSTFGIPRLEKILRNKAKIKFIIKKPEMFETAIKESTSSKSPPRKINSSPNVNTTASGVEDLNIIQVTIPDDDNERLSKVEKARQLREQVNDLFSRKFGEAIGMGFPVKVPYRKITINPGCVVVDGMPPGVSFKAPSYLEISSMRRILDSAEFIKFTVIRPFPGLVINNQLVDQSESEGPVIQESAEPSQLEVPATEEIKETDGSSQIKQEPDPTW
UniProt P29084: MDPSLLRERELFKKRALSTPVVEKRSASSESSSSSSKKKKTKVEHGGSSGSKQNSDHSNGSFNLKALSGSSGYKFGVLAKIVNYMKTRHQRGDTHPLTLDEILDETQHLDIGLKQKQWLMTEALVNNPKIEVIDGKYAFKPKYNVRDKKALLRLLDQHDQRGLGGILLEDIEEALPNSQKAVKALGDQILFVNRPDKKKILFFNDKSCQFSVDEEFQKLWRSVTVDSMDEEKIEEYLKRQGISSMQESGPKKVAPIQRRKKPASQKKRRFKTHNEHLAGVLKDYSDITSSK
UniProt Q9BQ67, whole entry, looked up: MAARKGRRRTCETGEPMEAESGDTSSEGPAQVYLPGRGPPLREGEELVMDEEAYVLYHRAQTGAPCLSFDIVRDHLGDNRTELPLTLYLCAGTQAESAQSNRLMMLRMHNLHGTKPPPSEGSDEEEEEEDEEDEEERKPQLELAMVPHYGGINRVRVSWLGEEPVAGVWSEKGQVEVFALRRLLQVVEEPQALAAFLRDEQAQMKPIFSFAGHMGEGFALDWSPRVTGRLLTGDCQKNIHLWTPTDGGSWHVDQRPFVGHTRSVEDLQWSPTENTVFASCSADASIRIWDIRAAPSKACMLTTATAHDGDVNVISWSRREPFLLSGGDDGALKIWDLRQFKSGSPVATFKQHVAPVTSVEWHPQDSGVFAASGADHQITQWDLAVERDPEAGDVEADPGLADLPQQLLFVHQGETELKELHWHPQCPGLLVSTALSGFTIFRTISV
UniProt P62993, whole entry, looked up: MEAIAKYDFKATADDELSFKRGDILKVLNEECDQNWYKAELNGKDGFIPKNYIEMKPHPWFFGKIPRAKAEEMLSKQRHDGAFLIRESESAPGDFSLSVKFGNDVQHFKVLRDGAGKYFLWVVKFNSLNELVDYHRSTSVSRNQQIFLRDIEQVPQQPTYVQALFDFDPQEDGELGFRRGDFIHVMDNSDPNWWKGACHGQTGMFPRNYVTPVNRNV
UniProt Q7Z4H7: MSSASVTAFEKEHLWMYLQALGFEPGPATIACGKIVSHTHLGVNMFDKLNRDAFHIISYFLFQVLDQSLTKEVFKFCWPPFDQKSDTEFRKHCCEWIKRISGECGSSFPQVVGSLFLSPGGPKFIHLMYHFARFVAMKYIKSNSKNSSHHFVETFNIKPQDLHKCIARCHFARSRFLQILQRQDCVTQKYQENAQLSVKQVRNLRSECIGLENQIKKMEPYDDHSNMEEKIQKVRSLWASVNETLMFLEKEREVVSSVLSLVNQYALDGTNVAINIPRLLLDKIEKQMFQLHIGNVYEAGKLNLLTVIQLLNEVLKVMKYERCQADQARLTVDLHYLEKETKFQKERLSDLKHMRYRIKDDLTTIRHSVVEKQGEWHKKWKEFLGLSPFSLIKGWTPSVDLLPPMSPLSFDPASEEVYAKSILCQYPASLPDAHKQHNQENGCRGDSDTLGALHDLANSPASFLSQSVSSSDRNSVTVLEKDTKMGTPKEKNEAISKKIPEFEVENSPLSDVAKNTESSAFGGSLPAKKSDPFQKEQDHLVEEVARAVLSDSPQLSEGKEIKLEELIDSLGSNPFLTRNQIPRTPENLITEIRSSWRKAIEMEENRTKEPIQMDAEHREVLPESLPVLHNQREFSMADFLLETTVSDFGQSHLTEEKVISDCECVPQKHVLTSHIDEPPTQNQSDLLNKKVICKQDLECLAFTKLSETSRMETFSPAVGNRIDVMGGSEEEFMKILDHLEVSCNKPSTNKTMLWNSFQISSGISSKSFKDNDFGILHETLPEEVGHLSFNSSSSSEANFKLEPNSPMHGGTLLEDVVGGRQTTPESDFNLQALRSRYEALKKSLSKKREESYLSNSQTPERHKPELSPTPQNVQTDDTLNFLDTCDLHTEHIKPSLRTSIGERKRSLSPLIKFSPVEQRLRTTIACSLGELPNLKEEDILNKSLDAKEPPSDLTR
UniProt O43708: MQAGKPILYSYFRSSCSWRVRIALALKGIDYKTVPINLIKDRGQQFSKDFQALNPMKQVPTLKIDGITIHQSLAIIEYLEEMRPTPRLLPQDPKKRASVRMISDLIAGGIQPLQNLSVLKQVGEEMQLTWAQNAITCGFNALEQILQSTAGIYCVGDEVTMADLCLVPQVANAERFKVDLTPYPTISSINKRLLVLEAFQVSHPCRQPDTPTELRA
UniProt Q9Y450, whole entry, looked up: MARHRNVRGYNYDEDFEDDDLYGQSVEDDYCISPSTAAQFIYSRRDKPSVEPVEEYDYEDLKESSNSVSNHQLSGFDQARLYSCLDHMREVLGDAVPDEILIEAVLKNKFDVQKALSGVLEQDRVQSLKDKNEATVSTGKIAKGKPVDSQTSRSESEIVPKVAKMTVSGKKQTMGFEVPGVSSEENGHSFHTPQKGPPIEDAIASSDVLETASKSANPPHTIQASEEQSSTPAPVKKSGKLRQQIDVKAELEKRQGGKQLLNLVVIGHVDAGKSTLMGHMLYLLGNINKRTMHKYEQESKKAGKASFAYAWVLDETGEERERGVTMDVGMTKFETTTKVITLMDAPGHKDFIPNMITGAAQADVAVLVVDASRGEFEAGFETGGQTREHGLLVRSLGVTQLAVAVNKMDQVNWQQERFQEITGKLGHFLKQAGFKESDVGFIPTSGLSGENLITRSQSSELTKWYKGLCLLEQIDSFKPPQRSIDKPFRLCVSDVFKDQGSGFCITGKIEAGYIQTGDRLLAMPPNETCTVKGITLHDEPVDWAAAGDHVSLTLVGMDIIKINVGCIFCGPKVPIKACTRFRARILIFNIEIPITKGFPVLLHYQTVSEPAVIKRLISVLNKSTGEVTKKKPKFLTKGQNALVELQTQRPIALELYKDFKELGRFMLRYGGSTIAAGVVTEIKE

Target | probe-labelled cysteine peptide fold change (10 µM) | probe-labelled cysteine peptide fold change (50 µM)
HARS_P12081_235_TICSSVDK (UniProt P12081) | 0.0663 | -0.144
HAGHL_Q6PII5-2_248_AVPADVLEALCK (UniProt Q6PII5) | -0.407 | -0.341
HAGHL_Q6PII5_170_VFCGHEHTLSNLEFAQK (UniProt Q6PII5) | -0.0319 | -0.114
GTF2H4_Q92759_16_VHLQCR (UniProt Q92759) | -0.106 | -0.293
GRPEL2_Q8TAA5_87_AIADCENIR (UniProt Q8TAA5) | -0.139 | -0.27
HARS_P12081_379_KVPCVGLSIGVER (UniProt P12081) | 0.0603 | 0.0623
GSPT1_P15170_464_TAGTICLETFK (UniProt P15170) | 0.00954 | 0.0941
GSDMD_P57764_38_RVVQELDHGGEFIPVTSLQSSTGFQPYCLVVR (UniProt P57764) | 0.275 | -0.375
GTF3C4_Q9UKN8_441_QNGTVYTCSSDGK (UniProt Q9UKN8) | 0.106 | 0.0678
GPX7_Q96SL4_86_DLGPHHFNVLAFPCNQFGQQEPDSNK (UniProt Q96SL4) | -0.0107 | -0.1
HAGHL_Q6PII5_188_VEPCNDHVR (UniProt Q6PII5) | 0.0181 | 0.0303
GTF2H1_P32780_246_DLFAECAK (UniProt P32780) | -0.095 | -0.337
GSK3A_P49840_398_LSPLEACAHSFFDELR (UniProt P49840) | -0.105 | -0.0385
HAUS2_Q9NVX0_89_CHTLQSMNNHLEAVLK (UniProt Q9NVX0) | 0.0751 | -0.239
HADHB_P55084_458_EGGQYGLVAACAAGGQGHAMIVEAYPK (UniProt P55084) | -0.039 | -0.29
GSR_P00390_377_GIYAVGDVCGK (UniProt P00390) | 0.0739 | 0.0996
GTF2I_P78347_475_MVDQLFCK (UniProt P78347) | -0.213 | 0.51
HAT1_O14929_168_ADMTCR (UniProt O14929) | 0.0387 | 0.0342
GTF2E2_P29084_208_SCQFSVDEEFQK (UniProt P29084) | -0.0167 | -0.0921
GRWD1_Q9BQ67_235_LLTGDCQK (UniProt Q9BQ67) | -0.0866 | -0.0575

Target | probe-labelled cysteine peptide fold change (10 µM) | probe-labelled cysteine peptide fold change (50 µM)
HACL1_Q9UJ83_261_GVVPDNHPYCVGAAR (UniProt Q9UJ83) | -0.109 | 0.122
GSTM3_P21266_178_CLDEFPNLK (UniProt P21266) | -0.182 | -0.0246
GRB2_P62993_198_GACHGQTGMFPR (UniProt P62993) | 0.097 | 0.0467
GTF3C4_Q9UKN8_129_TEVAECK (UniProt Q9UKN8) | -0.292 | 0.0341
GSDME_O60443_156_NEVLCVLTQK (UniProt O60443) | -0.0438 | -0.0317
GSPT1_P15170_381_GIEEEEILPGFILCDPNNLCHSGR (UniProt P15170) | 0.527 | 0.422
GTF2I_P78347_475_KMVDQLFCK (UniProt P78347) | -0.376 | -0.337
HADHA_P40939_349_ALMGLYHGQVLCKK (UniProt P40939) | -0.265 | -0.573
HAUS6_Q7Z4H7_32_EHLWMYLQALGFEPGPATIACGK (UniProt Q7Z4H7) | -0.00813 | -0.143
GRK2_P25098_559_DCIMHGYMSK (UniProt P25098) | -0.212 | -0.433
H2AFY_O75367_297_NCLALADDK (UniProt O75367) | 0.0778 | -0.00756
GRN_P28799_171_VHCCPHGAFCDLVHTR (UniProt P28799) | 0.119 | -0.0901
HAUS6_Q7Z4H7_662_VISDCECVPQK (UniProt Q7Z4H7) | 0.0385 | -0.547
GTF3C2_Q8WUA4_291_QKPHCR (UniProt Q8WUA4) | -0.279 | -0.824
GTSF1_Q8WW33_76_SCIEQDVVNQTR (UniProt Q8WW33) | 0.111 | -0.155
GSTZ1_O43708_205_LLVLEAFQVSHPCR (UniProt O43708) | 0.0805 | 0.0886
GRB2_P62993_32_VLNEECDQNWYK (UniProt P62993) | 0.215 | -0.0382
GTF2H1_P32780_478_HFWSCFPVNTPFLEEK (UniProt P32780) | 0.349 | 0.511
HBS1L_Q9Y450_469_GLCLLEQIDSFKPPQR (UniProt Q9Y450) | -0.114 | 0.00703
GRWD1_Q9BQ67_90_DHLGDNRTELPLTLYLCAGTQAESAQSNR (UniProt Q9BQ67) | 0.0823 | -0.3

Pulled one by one from above (two):
Target | probe-labelled cysteine peptide fold change (10 µM) | probe-labelled cysteine peptide fold change (50 µM)
GRB2_P62993_32_VLNEECDQNWYK (UniProt P62993) | 0.215 | -0.0382
HBS1L_Q9Y450_469_GLCLLEQIDSFKPPQR (UniProt Q9Y450) | -0.114 | 0.00703

Reference: the supplement of paper PMC12067093, “Discovery and optimisation of a covalent ligand for TRIM25 and its application to targeted protein ubiquitination” (Chemical Science, 2025)
